Laboratory results: PMC6044906
These are yes or no findings as the source states them, for the method shown. In cells and extracts the contact can be indirect. Some binding calls cover weakened binding; strength is not graded here. One block for each binder: values may come before it.

Columns and labels:
[1] = target: T1, DNAI1 (human (endogenous in tracheal epithelial cultures)), Q9UI46; test: co-IP; endogenous FKBP8 and DNAI1 immunoprecipitated from lysates of healthy human donor tracheal epithelial cultures (MucilAir, D17 ALI, immature cells), Protein G magnetic beads, immunoblot for DNAH5 and ZMYND10; conditions: remark: other sources report otherwise
T1 chain: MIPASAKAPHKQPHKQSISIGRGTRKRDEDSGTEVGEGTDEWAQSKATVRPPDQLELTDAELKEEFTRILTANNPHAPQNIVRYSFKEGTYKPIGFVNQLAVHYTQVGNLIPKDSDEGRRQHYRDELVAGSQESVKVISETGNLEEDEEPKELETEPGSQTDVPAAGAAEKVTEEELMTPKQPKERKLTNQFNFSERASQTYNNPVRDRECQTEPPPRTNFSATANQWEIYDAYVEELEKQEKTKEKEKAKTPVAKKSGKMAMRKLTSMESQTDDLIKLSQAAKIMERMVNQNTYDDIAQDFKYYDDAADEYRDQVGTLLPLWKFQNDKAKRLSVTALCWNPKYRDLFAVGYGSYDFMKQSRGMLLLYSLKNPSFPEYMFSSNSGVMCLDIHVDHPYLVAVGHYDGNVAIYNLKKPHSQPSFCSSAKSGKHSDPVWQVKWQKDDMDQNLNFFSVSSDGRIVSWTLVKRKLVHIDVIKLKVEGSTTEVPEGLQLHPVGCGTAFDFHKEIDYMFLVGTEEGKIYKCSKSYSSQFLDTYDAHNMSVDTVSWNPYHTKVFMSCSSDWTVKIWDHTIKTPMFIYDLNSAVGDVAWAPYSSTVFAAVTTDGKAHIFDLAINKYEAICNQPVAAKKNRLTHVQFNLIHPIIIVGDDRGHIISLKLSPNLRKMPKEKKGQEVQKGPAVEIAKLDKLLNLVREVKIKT

[2] = target: T2, DNAI2 (mouse (endogenous in testes, oviduct, trachea, nasal epithelium)) (UniProt A2AC93); test: co-IP; endogenous DNAI2 immunoprecipitated from mouse tissue extracts (testes P26, oviduct P7, trachea P7 and P90) of wild type and Zmynd10-/- animals, mild lysis buffer, Protein G magnetic beads, immunoblot for DNAI1 and DNAH5; DNAH5 co-precipitation 0.47 and 0.56 fold reduction in mutant P7 oviduct and trachea
T2 sequence: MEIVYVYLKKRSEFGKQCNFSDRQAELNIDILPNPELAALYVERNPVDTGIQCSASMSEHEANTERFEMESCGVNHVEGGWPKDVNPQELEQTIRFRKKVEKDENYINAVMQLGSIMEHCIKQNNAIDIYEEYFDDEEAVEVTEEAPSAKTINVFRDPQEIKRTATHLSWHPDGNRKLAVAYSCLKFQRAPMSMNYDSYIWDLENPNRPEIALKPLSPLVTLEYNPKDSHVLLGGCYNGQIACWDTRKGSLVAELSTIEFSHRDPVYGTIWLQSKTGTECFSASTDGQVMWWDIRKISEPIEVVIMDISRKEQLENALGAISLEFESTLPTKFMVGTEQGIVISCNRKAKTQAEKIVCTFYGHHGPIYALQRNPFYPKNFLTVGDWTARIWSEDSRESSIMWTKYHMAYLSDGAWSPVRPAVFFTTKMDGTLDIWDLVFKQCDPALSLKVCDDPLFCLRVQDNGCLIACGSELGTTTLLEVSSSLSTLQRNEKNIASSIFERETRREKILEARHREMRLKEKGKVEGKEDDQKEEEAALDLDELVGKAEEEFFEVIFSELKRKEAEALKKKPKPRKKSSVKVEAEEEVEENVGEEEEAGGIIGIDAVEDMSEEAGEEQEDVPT

binding [1]: no binding
B1: ZMYND10, O75800 1-440 (protein)
chain: MGDLELLLPGEAEVLVRGLRSFPLREMGSEGWNQQHENLEKLNMQAILDATVSQGEPIQELLVTHGKVPTLVEELIAVEMWKQKVFPVFCRVEDFKPQNTFPIYMVVHHEASIINLLETVFFHKEVCESAEDTVLDLVDYCHRKLTLLVAQSGCGGPPEGEGSQDSNPMQELQKQAELMEFEIALKALSVLRYITDCVDSLSLSTLSRMLSTHNLPCLLVELLEHSPWSRREGGKLQQFEGSRWHTVAPSEQQKLSKLDGQVWIALYNLLLSPEAQARYCLTSFAKGRLLKLRAFLTDTLLDQLPNLAHLQSFLAHLTLTETQPPKKDLVLEQIPEIWERLERENRGKWQAIAKHQLQHVFSPSEQDLRLQARRWAETYRLDVLEAVAPERPRCAYCSAEASKRCSRCQNEWYCCRECQVKHWEKHGKTCVLAAQGDRAK

binding [2]: binds
B2: DNAI1 (protein, UniProt Q8C0M8 1-701)
chain: MPSKQIRKQSISVTRGARRRDEDSGTDVGEGTDEWSQSKATVRPPDQLELTDAELKEEFTRILTANNPHAPQNIVRYSFKEGTYKLIGFVNQMAVHFSQVGNLIPKDSDEGRRQHYRDEMVAGSQESIKVVTSEAENLEEEEEPKEGEGEAEAEAEAGSQTDIPAAAETTEKVIEEELMAPVQPKERKLTNQFNFSERASQTFNNPLRDRECQMEPPPRTNFSATANQWEIYDAYVDELEKQEKTKEKEKAKTPVAKKTEKMAMRKLTSMESQSDDITKVTQAAKIVERMVNQNTYDDVAQDFKYYEDTADEYRDQEGTLLPLWKFQNDKAKRLAVTALCWNPKYKDLFAVGHGSYDFMKQSRGMLLLYSMKNPSFPEYMFSSESGIMCLDVHVDHPYLVVVGYYDGNVAIYNLKKPHSQPCFRSTSKSGKHTDPVWQVKWQKDDMDHNLNFFSVSSDGRIVSWTLVKSELVHIDIIKLKTEGSTTEIPEGLQLHTVGCGTAFDFHKEIDYMFLVGTEEGKIYKCSKSYSSQFLDTYDAHNMAVDAVLWNPYHTKVFMSCSSDWTVKIWDHTIKTPMFIYDLNSAVGDVAWAPYSSTVFAAVTTDGKAHVFDLAVNKYEAICNQPVVAKKKNKITHVQFNPIHPIIIVGDDRGHIICLKLSPNLRKMPKEKKGQEVQKGPAVEIAKLDKLLNLVREVKTKT
